Experimental data as given in the supplement of paper PMC12889115.
The list shows a part of the results. These are raw signals, not scaled to a control.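 Primary screen: polymyxin B was added at a level permeabilizing Salmonella outer membranes while sparing inner membranes. DMSO wells, both with and without polymyxin B, established maximum growth. Plate-to-plate variation meant each plate was ranked on its own, and the lowest-OD600 compounds were selected as hits.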

Test system: Salmonella enterica serovar Typhimurium SL1344
Test: bacterial growth OD600 after 18 h with compound and polymyxin B; higher = more bacterial growth (less inhibition)
Details: 50 µM, Mueller-Hinton broth

SMILES | bacterial growth OD600 (polymyxin B 1 µg/mL) | bacterial growth OD600 (polymyxin B 0.75 µg/mL)
CC(C)(O)C#Cc1ccc(CN2CCCC(CNC(=O)c3ccco3)C2)cc1 (centres undefined) | 0.867 | –
O=C(c1ccc[n+]([O-])c1)N1CCC(C2CCN(c3ncccn3)CC2)C1 (centres undefined) | – | 0.843
CCN(CC)C1CCN(C(=O)CCc2nnc(Cc3cc(OC)ccc3OC)o2)C1 (centres undefined) | 0.726 | –
Cc1cc(C)n(-c2ccc(NC(=O)C3CCN(C(=O)C4CCC4)CC3)cc2)n1 | 0.807 | –
CN(Cc1ccccc1)c1ncccc1CNC(=O)CN1CCOC1=O | 0.902 | –
CCO[C@H]1[C@H](NC(=O)c2ccco2)c2ccccc2C12CCN(C(=O)c1cn3c(C)cccc3n1)CC2 | – | 0.827
CCN1CCN(C2(C(=O)NC3CCOC(C)(C)C3)Cc3ccccc3C2)CC1 (centres undefined) | – | 0.857
OC(Cc1ccccc1)c1ccc2c(c1)CN(Cc1c(F)ccc(F)c1F)CCO2 (centres undefined) | – | 0.004
CCOC(=O)C1(CCCc2ccccc2)CCN(C(=O)CN2CCOC2=O)CC1 | 0.837 | –
O=C(NCC1CCCCO1)c1cc(Cn2ccc3ccccc32)[nH]n1 (centres undefined) | 0.927 | –
Cc1cccn2c(CNC(C)CCCC(C)(C)O)c(C(=O)N3CCOCC3)nc12 (centres undefined) | – | 0.978
Cc1cccc(-c2cnc(-c3ccncc3)nc2C2CCN(C(=O)CC3=CCCCC3)CC2)c1 | – | -0.003
CCOC(=O)N1CCC(NCc2cccnc2Oc2ccccc2C)CC1 | 0.827 | –
Cc1nc(N2CCC(C(=O)N3CCCC(c4ccccc4)C3)CC2)nc2cc(S(C)(=O)=O)ccc12 (centres undefined) | – | 0.755
COC(C(=O)N1CCc2c(cnc(C)c2CNC(=O)CSc2ccccc2)C1)c1ccccc1 (centres undefined) | – | 0.848
CCOC(=O)CNC(=O)N1CCc2onc(-c3cccc(OC)c3)c2C1 | – | 0.64
COc1cccc(CNC(=O)c2sc3ncnc(NC[C@H]4C[C@@H]5C=C[C@H]4C5)c3c2C)c1OC | – | 0.774
C[C@@H]1CN(c2ccc(-c3nc(COc4ccccc4)no3)cn2)C[C@H](C)O1 | 0.731 | –
C=CCO[C@H]1[C@H](NC(=O)CSC)c2ccccc2C12CCN(Cc1cccc3cnccc13)CC2 | – | 0.82
COc1ccc(F)c(CC2(CCC(=O)N3CC4(C)CC3CC(C)(C)C4)CCC(=O)N2)c1 (centres undefined) | – | 1.03
CC(Cc1ccc(O)cc1)N1CCC(N2CCC(C(=O)NCc3cccnc3)CC2)CC1 (centres undefined) | 1.11 | –
CCOC(=O)N1CCC(N2C(=O)CCC2CCNCc2ccc(C(=O)OC)cc2)CC1 (centres undefined) | – | 0.846
COCc1noc(-c2ccc(N(C)C(C)c3ccccc3OC)nc2)n1 (centres undefined) | 0.774 | –
COc1ccc(NC(=O)CCC2CCCN(C(=O)CCc3c(C)noc3C)C2)cc1Cl (centres undefined) | 0.963 | –
CN(C(=O)c1ccco1)C(Cc1ccc(F)cc1F)C1CCN(Cc2ccc3c(c2)OCO3)CC1 (centres undefined) | – | 0.646
CCOC(=O)C1(Cc2ccc(F)cc2)CCCN(C(=O)CCc2cnn(C)c2)C1 (centres undefined) | 0.681 | –
CCn1nc(C)c(CN(C)Cc2nc(-c3ccccc3NC(=O)c3ccsc3)oc2C)c1C | – | 0.798
CC(=O)c1cc(C(=O)N2CCC(C3CCN(C)C3)CC2)[nH]n1 (centres undefined) | – | 0.819
COc1ccc(OCC(=O)NC(C)c2cnn(-c3ccccc3C)c2C)cc1 (centres undefined) | 0.887 | –

Reprinted from the results shown (2 entries):
SMILES | bacterial growth OD600 (polymyxin B 1 µg/mL) | bacterial growth OD600 (polymyxin B 0.75 µg/mL)
CCOC(=O)C1(CCCc2ccccc2)CCN(C(=O)CN2CCOC2=O)CC1 | 0.837 | –
O=C(NCC1CCCCO1)c1cc(Cn2ccc3ccccc32)[nH]n1 (centres undefined) | 0.927 | –
